The chains are these.
B1: 13C5.5L2E (antibody, V domains shown)
VH: EVTLRESGPGLVKPTQTLTLTCTLYGFSLSTSDMGVDWIRQPPGKGLEWLAHIWWDDVKRYNPALKSRLTISKDTSKNQVVLKLTSVDPVDTATYYCARTVSSGYIYYAMDYWGQGTLVTVSS
VL: DIQMTQSPSSLSASVGDRVTISCRASQDIRNYLNWYQQKPGKAPKLLIFYTSMKPRGVPSRFSGSGSGTDYTLTISSLQPEDIATYYCQQGNTLPLTFGGGTKVEIK
B2: 13C5.5L2EL3F (antibody, V domains shown)
VH: EVTLRESGPGLVKPTQTLTLTCTLYGFSLSTSDMGVDWIRQPPGKGLEWLAHIWWDDVKRYNPALKSRLTISKDTSKNQVVLKLTSVDPVDTATYYCARTVSSGYIYYAMDYWGQGTLVTVSS
VL: DIQMTQSPSSLSASVGDRVTISCRASQDIRNYLNWYQQKPGKAPKLLIFYTSMKPRGVPSRFSGSGSGTDYTLTISSLQPEDIATYYCQQGLTPPLTFGGGTKVEIK
B3: 13C5.5L3F (antibody, V domains shown)
VH: EVTLRESGPGLVKPTQTLTLTCTLYGFSLSTSDMGVDWIRQPPGKGLEWLAHIWWDDVKRYNPALKSRLTISKDTSKNQVVLKLTSVDPVDTATYYCARTVSSGYIYYAMDYWGQGTLVTVSS
VL: DIQMTQSPSSLSASVGDRVTISCRASQDIRNYLNWYQQKPGKAPKLLIFYTSKLHSGVPSRFSGSGSGTDYTLTISSLQPEDIATYYCQQGLTPPLTFGGGTKVEIK

Protein sequences, listed by entry. Tags and fused reporters are not part of them. Residues count along the entry.
UniProt Q864V6, residues 21-132: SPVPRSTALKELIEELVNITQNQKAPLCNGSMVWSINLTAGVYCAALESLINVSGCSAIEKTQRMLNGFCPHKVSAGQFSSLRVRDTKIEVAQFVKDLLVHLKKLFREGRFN

These are yes or no findings as the source states them, for the method shown. Some results given as binding are weak or reduced against the parent protein; the word gives no strength.

This test concerns the target rhesus IL-13 (rhesus) (UniProt Q864V6). As to the kind of experiment: SPR (Biacore). On the technique in general: SPR reads the build-up and loss of mass on a sensor chip optically.
For B1, the binding result was “binds”.

As to B2, the binding entry was “binds”.

As to B3, the binding result is given as “binds”.
